No constants are given. Whether binding was seen depends on the method and setting. Binding seen in cells or lysates may run through a third protein. Some entries that bind do so weakly or less than the wild type. Sequences can lack the tags named with a protein.
Target: FLAG-MKK7 (UniProt O14733)
Assay: co-immunoprecipitation, western blot

Chains of the proteins cited; added tags and fusions are not shown.
UniProt O14733: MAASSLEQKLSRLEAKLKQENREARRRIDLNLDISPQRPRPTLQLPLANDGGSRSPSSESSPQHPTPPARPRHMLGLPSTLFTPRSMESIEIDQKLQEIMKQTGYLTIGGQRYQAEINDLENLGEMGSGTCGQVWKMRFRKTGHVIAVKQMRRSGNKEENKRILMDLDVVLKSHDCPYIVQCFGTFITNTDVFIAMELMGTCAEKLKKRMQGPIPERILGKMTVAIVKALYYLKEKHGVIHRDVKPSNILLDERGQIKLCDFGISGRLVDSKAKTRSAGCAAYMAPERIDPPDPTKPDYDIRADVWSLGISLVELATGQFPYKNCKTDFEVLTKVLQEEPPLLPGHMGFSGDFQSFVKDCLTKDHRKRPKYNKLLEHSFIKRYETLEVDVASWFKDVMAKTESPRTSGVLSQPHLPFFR

B1: Full length human Gadd45β (other, UniProt O75293 1-160, looked up)
chain: MTLEELVACDNAAQKMQTVTAAVEELLVAAQRQDRLTVGVYESAKLMNVDPDSVVLCLLAIDEEEEDDIALQIHFTLIQSFCCDNDINIVRVSGMQRLAQLLGEPAETQGTTEARDLHCLLVTNPHTDAWKSHGLVEVASYCEESRGNNQWVPYISLQER
notes: also called Gadd45β (SPR)
  binding: binds
